# Reference: paper PMC7414915
# Protein sequences, listed by entry. Tags and fused reporters are not part of them. Lines headed by an entry give the natural chain unless they say otherwise; changes in a name come on top.
# UniProt Q96BN8: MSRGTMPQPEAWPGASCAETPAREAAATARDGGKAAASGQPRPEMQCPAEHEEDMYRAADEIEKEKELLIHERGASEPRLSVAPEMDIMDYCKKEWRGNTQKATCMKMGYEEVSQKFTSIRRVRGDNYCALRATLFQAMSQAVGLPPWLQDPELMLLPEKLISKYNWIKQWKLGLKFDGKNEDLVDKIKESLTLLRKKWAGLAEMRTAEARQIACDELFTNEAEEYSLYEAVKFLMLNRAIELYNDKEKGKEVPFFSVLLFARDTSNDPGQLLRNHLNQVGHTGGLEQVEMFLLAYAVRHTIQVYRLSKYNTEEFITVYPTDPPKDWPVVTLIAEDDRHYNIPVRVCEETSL
# UniProt P35222: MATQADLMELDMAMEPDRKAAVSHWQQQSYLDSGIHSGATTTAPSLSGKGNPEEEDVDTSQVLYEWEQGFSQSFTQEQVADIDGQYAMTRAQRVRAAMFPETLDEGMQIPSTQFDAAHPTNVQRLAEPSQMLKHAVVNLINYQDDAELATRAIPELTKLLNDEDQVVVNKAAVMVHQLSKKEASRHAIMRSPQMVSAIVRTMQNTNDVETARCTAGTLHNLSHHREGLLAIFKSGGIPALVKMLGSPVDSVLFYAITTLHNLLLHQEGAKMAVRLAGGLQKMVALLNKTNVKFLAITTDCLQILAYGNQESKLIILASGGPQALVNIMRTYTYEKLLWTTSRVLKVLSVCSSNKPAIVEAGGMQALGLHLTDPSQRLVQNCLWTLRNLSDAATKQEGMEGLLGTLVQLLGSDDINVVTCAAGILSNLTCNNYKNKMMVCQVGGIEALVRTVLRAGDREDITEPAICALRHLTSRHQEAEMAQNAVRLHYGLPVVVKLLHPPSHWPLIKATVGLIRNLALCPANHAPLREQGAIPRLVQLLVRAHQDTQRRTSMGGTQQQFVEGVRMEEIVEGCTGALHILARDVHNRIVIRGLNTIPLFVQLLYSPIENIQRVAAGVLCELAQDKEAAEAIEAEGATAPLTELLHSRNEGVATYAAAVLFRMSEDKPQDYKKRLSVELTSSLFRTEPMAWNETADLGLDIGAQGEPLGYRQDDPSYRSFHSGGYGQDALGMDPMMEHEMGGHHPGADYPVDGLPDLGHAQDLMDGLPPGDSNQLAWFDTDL
# UniProt P00519: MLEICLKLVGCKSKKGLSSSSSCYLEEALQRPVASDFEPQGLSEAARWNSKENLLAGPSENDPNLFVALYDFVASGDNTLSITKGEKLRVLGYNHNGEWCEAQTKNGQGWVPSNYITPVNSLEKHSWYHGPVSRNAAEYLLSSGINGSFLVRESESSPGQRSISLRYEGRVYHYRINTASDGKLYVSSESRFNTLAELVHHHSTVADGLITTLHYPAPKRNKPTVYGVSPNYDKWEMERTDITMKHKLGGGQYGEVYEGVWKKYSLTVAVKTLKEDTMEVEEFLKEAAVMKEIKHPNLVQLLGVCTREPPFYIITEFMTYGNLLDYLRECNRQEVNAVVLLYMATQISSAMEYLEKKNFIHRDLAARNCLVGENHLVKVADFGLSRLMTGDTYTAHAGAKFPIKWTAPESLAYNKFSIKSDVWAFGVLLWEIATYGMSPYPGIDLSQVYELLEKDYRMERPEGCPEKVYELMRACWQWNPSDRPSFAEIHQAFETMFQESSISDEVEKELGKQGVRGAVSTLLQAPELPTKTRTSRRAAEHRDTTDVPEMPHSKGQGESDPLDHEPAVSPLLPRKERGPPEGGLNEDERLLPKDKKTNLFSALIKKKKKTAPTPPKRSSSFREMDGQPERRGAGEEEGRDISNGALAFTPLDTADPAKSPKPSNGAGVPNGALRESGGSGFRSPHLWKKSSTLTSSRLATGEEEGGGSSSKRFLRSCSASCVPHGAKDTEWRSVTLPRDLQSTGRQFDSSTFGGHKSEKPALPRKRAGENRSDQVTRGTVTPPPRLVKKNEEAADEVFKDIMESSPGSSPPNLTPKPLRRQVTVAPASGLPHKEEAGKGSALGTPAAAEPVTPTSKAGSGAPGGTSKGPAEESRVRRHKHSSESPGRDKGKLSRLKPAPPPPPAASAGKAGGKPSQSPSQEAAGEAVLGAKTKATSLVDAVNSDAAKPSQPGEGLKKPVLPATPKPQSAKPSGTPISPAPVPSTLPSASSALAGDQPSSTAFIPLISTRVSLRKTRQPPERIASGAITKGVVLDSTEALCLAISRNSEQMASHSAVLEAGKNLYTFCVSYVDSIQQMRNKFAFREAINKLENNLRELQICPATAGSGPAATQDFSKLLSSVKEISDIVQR
# UniProt Q96EP0: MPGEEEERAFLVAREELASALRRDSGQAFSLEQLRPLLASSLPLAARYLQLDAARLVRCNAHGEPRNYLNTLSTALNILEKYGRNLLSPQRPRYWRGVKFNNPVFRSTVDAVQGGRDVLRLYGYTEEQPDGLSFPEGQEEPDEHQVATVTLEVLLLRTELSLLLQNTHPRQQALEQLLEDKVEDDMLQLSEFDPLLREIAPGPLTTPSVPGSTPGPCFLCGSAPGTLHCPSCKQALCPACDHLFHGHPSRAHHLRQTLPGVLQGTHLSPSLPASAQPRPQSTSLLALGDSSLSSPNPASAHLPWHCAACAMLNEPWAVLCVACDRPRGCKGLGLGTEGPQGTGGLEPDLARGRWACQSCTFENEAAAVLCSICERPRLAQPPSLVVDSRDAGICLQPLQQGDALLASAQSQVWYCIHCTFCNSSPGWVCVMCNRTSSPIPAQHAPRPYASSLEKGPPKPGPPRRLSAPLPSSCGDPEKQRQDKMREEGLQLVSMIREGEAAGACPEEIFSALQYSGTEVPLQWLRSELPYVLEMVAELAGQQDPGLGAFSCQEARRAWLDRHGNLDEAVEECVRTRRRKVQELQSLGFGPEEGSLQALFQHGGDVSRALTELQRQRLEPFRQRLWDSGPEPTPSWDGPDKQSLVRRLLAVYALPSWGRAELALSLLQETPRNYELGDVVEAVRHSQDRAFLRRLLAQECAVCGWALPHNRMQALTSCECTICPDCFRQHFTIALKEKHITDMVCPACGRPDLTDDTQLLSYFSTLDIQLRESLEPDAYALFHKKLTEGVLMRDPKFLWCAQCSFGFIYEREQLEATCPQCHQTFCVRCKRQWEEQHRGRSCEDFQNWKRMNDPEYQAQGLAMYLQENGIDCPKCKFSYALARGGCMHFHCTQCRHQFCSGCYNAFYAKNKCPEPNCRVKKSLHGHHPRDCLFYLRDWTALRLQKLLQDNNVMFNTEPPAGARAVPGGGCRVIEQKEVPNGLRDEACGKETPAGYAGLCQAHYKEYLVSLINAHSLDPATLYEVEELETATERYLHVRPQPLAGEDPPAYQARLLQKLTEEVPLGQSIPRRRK
# Results are given in words; binding and its absence hold for the method and conditions named. In cells and extracts the contact can be indirect. Some results given as binding are weak or reduced against the parent protein; the word gives no strength.
# Experiments:
# [1] = target: OTULIN (human (endogenous in MDA-MB-231)) (UniProt Q96BN8); assay: co-IP; endogenous proteins of MDA-MB-231 lysates (IP lysis buffer: 20 mM Tris pH 7.0, 150 mM NaCl, 0.5% Nonidet P-40), 2 μg primary antibody (anti-β-catenin, anti-OTULIN) and protein G-Sepharose, 4 °C overnight; cells untreated or treated with Dox (2 µg/ml), MG132 (10 µM), Gliotoxin (1 µM), Imatinib (10 µM) or Nu7441 (10 µM); ABL1-KO cells
# [2] = target: β-catenin (human (endogenous in MDA-MB-231)) (UniProt P35222); assay: co-IP; MDA-MB-231 cells transfected with OTULIN WT or Y56D, MG132 (10 µM) 8 h, then MG132 with Dox (2 µg/ml) 8 h; endogenous HOIP and β-catenin
# Flag-β-catenin WT = Flag-β-catenin WT (UniProt P35222); assay: co-IP; HEK293T cells transfected with Flag-β-catenin (WT or mutants), alone or with HA-OTULIN (WT or mutants); anti-Flag antibody; MG132 (10 µM) 16 h before harvest for the OTULIN panel
# [3] = target: β-catenin (human (endogenous in MDA-MB-231)) (UniProt P35222); assay: co-IP; endogenous proteins of MDA-MB-231 lysates (IP lysis buffer: 20 mM Tris pH 7.0, 150 mM NaCl, 0.5% Nonidet P-40), 2 μg primary antibody (anti-β-catenin, anti-OTULIN) and protein G-Sepharose, 4 °C overnight; cells untreated or treated with Dox (2 µg/ml), MG132 (10 µM), Gliotoxin (1 µM), Imatinib (10 µM) or Nu7441 (10 µM); ABL1-KO cells
Substance,binding [1],binding [2],binding (Flag-β-catenin WT),binding [3]
c-Abl (from UniProt P00519 1-1130) (enzyme),binds,,,
HA-OTULIN WT (from UniProt Q96BN8 1-352) (enzyme),,binds,binds,
linear ubiquitin assembly complex (LUBAC) (from UniProt Q96EP0 1-1072; Q9BYM8 1-510; Q9H0F6 1-387),,,,binds
OTULIN (from UniProt Q96BN8 1-352) (enzyme),,,,binds
HA-OTULIN Y56D (from UniProt Q96BN8 1-352) (enzyme),,binds,binds,
